In article PMC7819943, “Rice protein-binding microarrays: a tool to detect cis-acting elements near promoter regions in rice” one finds binding signal data, which are given here for 54 sequences.

Some of the results follow.

This assay deals with T1, OsSMF1 (Oryza sativa, UniProt Q6ZLB0 1-436).
T1 sequence: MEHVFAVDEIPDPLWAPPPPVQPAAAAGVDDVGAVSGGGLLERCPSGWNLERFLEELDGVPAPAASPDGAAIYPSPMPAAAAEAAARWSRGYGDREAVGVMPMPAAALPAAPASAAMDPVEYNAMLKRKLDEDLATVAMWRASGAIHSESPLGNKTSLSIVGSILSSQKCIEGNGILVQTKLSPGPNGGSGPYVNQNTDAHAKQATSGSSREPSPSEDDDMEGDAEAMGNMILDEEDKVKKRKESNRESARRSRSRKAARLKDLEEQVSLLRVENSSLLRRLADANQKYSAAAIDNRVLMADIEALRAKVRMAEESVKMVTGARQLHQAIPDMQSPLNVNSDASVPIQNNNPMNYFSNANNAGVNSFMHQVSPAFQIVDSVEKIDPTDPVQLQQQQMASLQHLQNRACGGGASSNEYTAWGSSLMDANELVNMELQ
Nature of the assay: protein-binding microarray (RPBM); PBS, 2% BSA, 51.3 ng/ul salmon testes DNA, 50 uM zinc acetate, 200 nM TF, 25 C, 1 h; high values mean tight binding. As to conditions: protein: recombinant; tags: N-terminal polyhistidine and DsRed monomer fusion (pET32a); chain copies: 2; label: CyDye5-dUTP incorporated in the synthesized complementary strand; 3' TTTTT single-stranded linker to array surface; dsDNA, one strand shown. The gist of the method: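 The binding signal is fluorescence intensity per array feature (arbitrary units). Readings came from an Axon 4000B scanner after a washed, 2% BSA-blocked, double-stranded custom Agilent array had been incubated for 1 h at 25 °C with 200 nM protein and 50 µM zinc acetate. The protein was a Ni–NTA-purified transcription factor fused N-terminally to polyhistidine and DsRed, expressed in E. coli BL21-CodonPlus.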
For “CGTGCTCCCGCCTCACGTTTGCCACCTCATGGGCTGGGCTCGGAGTCACCTAGTGCAG”, the binding signal was 7220 fluorescence intensity (a.u.).
Under “CAACGCCCGCGTCACTCGCCCTAGGGCGACACGGGCGGCGCGGAGTCACCTAGTGCAG” stands 4780 fluorescence intensity (a.u.).
Under “AGGATTACAATGCGTCTGCCAAGAATGGCCCGACGAGATCCGGAGTCACCTAGTGCAG” stands 3190 fluorescence intensity (a.u.); under “GCAATCCCACGTTATCCATCACCCCACCGGGGAAGCCCAACGGAGTCACCTAGTGCAG”, 3310 fluorescence intensity (a.u.); under “GGCCGTGACGACGCGGCGCCACCGCTTGCACGCGTACGCCCGGAGTCACCTAGTGCAG”, 3160 fluorescence intensity (a.u.).
Consider “CCGAACCGTTCCTCCTACAGGCAATTCCCTCAACCTAAACCGGAGTCACCTAGTGCAG”, for which the binding signal is 3400 fluorescence intensity (a.u.).
Then “TTTGTCCCTGTACGGTTCTACATTGTACATATATATATATCGGAGTCACCTAGTGCAG”, with 12600 fluorescence intensity (a.u.); and “GACTAGCCCCACCTCACTCCTCCCCTCGCGACCGCGTCAACGGAGTCACCTAGTGCAG”, with 3650 fluorescence intensity (a.u.).
Then “GGCGATGCTTTGATTGCATCACACCGTCGTCGTAAGCCCACGGAGTCACCTAGTGCAG”, with 3150 fluorescence intensity (a.u.).
As to “CCTCGCAGTCGCAGCAGCCACCTCTCGCCAAACTCCCTCTCGGAGTCACCTAGTGCAG”, the binding signal was 15200 fluorescence intensity (a.u.).
Then “ATTATTTATTTTGTTTGTGATTTGCTTTATTATTAAAATACGGAGTCACCTAGTGCAG”, with 20800 fluorescence intensity (a.u.).
Under “AGCTGTGTTGCTAATTGTGGCATTGTGATGTGATGATCCCCGGAGTCACCTAGTGCAG” stands 3160 fluorescence intensity (a.u.).
Take “GTGGTCTCGTGGGCATCGTCCCAAGTCGCCGGGATCCAGACGGAGTCACCTAGTGCAG”: the binding signal was 3460 fluorescence intensity (a.u.).
Then “CCGGCCATCTGCTGCCGCTCTTGCGCCGCCTAGTTTTGCGCGGAGTCACCTAGTGCAG”, with 3820 fluorescence intensity (a.u.); and “TCCTTGATCCTTTATTTGATATTTGTTTAGATATATAATTCGGAGTCACCTAGTGCAG”, with 37900 fluorescence intensity (a.u.).
Then “TAGACACGTAAGCGCCACGTCAGCCAAAACCACCATCTAACGGAGTCACCTAGTGCAG”, with 32400 fluorescence intensity (a.u.); and “TTAAATAAATCATTGCAGTGTAAATGGTAATATTCAGGCCCGGAGTCACCTAGTGCAG”, with 31600 fluorescence intensity (a.u.); and “GCTCCGTGAGATGACGTGGAGTTTACTTCCTCCGTTCCATCGGAGTCACCTAGTGCAG”, with 16200 fluorescence intensity (a.u.).
Under “ATGACGGAAAGAGTACATGACAAATCAATTTCCCTGTCCTCGGAGTCACCTAGTGCAG” stands 3840 fluorescence intensity (a.u.).
Regarding “TCTGCCACACATCACTGAACCAGCACATGGATCACATTAACGGAGTCACCTAGTGCAG”, the binding signal was 3430 fluorescence intensity (a.u.).
For “CGCTGCCGCCACCATCCACTCACCACCGACACCGTTCGTGCGGAGTCACCTAGTGCAG”, the binding signal is 3970 fluorescence intensity (a.u.).
Under “TGTTCAACAAGGGCAAGTGTGCACGCGTGTATATAAGCGTCGGAGTCACCTAGTGCAG” stands 3480 fluorescence intensity (a.u.).
Under “TCAAACGTTATACGAAAAGTCGATGACGTTATATATTTTGCGGAGTCACCTAGTGCAG” stands 5800 fluorescence intensity (a.u.); under “CTATCCTGGTGTTATTTGCTAATCCCGATGCGTCACTGCACGGAGTCACCTAGTGCAG”, 4040 fluorescence intensity (a.u.); under “CGATCGAACTCCATTCGTCCAGATCACCTCATGCATAACACGGAGTCACCTAGTGCAG”, 4770 fluorescence intensity (a.u.).
Then “CCCAACCACCACCCCGAAGCGAAGCCGCGTGGAGGTGGAGCGGAGTCACCTAGTGCAG”, with 3210 fluorescence intensity (a.u.); and “AGGATTAACCATGTGACACATCCAGTGAGTCCCACGATGTCGGAGTCACCTAGTGCAG”, with 3530 fluorescence intensity (a.u.); and “TGGCTCCGCCTGCTCGCCGCCGGCGCCGACGCCTCCGTCGCGGAGTCACCTAGTGCAG”, with 4480 fluorescence intensity (a.u.).
On to “TCTGTTGGAAAGTCACCCTGTTACCTGTCATTGTTGTATTCGGAGTCACCTAGTGCAG”, for which the binding signal was 3880 fluorescence intensity (a.u.).
With “TGTCTTGTTGCCACTGCCGCTGGTGATAGACTCTACCATACGGAGTCACCTAGTGCAG”, the binding signal is 3260 fluorescence intensity (a.u.).
Then “AATTTAACTCTTTCCCGCGTGGATGGCCGCATATATATGCCGGAGTCACCTAGTGCAG”, with 3460 fluorescence intensity (a.u.).
Regarding “TGTCCAAATGACATGACTCACTTGGATCCTAATAGGACATCGGAGTCACCTAGTGCAG”, the binding signal is 8450 fluorescence intensity (a.u.).
Then “AAGCTTTGCATTTGGGCGCTGGGCATGTCAGCGTCCGGTTCGGAGTCACCTAGTGCAG”, with 4440 fluorescence intensity (a.u.); and “CCCTCGCTGTCACCTCCCCGGTCCCATCTTTGGCCGCCGTCGGAGTCACCTAGTGCAG”, with 3560 fluorescence intensity (a.u.).
Then “CACAGCGAGCAATAACAACAATACGACAGGAGGGCAAAGGCGGAGTCACCTAGTGCAG”, with 5870 fluorescence intensity (a.u.); and “ATTTCATCCAGTCGTAGGGCATGGATGACGTAGGGCATGCCGGAGTCACCTAGTGCAG”, with 6250 fluorescence intensity (a.u.).
Then “TCACTGCTCTGTGCGTATAACATATGACAACCACCCTTCCCGGAGTCACCTAGTGCAG”, with 3220 fluorescence intensity (a.u.); and “GTAAACGCATGCCTTTTCGCAAATTTGTAAAACGAAACGACGGAGTCACCTAGTGCAG”, with 31500 fluorescence intensity (a.u.); and “CACGTATGAAGCACTTTGCTGATATGAATCGTAGTGAACGCGGAGTCACCTAGTGCAG”, with 3360 fluorescence intensity (a.u.).
For the sequence “TCCGCCTCCGCCTCCACCTCCACCTCCACCTCCGCCTCCACGGAGTCACCTAGTGCAG”, the binding signal was 4210 fluorescence intensity (a.u.).
Under “CGCGGGACCGGGACCCGGCGTGCCACGTGGCAACCACTCGCGGAGTCACCTAGTGCAG” stands 19300 fluorescence intensity (a.u.); under “GATAGACTAATTGGTAAACACACATCAGAATATCAGATATCGGAGTCACCTAGTGCAG”, 3200 fluorescence intensity (a.u.).
Under “GCCCAAAGAAAGAAGGAGGTGGACACGTGGGAGATCTGCGCGGAGTCACCTAGTGCAG” stands 11200 fluorescence intensity (a.u.); under “TAGGGTGTGACATGCACCTCCTATGTCTATTACTCTTTGCCGGAGTCACCTAGTGCAG”, 4030 fluorescence intensity (a.u.).
Under “TGATGCCACGTGCAGTGCAGGTGGCCTTTGGGAGCGGTGACGGAGTCACCTAGTGCAG” stands 4730 fluorescence intensity (a.u.).
In the case of “GGCGGAAGGCGAACTTGGCGGGCGACGTGGAAGATGGGGCCGGAGTCACCTAGTGCAG”, the binding signal was 4220 fluorescence intensity (a.u.).
Under “CCCCGAACACGCAGCCTCGCCACGCCACGCGCCCACGCTGCGGAGTCACCTAGTGCAG” stands 6940 fluorescence intensity (a.u.); under “CCTCTTCCTTCCTCCTCGCTTCGTCACCCTCCGCCCTCCTCGGAGTCACCTAGTGCAG”, 4240 fluorescence intensity (a.u.).
Consider “TCTGCTAGCTAGGTTCCACCAGTCAGTTTAGTATGTGACTCGGAGTCACCTAGTGCAG”, for which the binding signal is 3400 fluorescence intensity (a.u.).
Then “TTATCTCCAATTTAAGCAACCAGAGGAATATATATGCTTGCGGAGTCACCTAGTGCAG”, with 53500 fluorescence intensity (a.u.); and “AGCTTTAGTATATGCATGTCACAGGATGACACTGCGTGCACGGAGTCACCTAGTGCAG”, with 3450 fluorescence intensity (a.u.).
Under “CAAAATCACCTACTCCCCTGGTTCTACAATTTCTTACAGTCGGAGTCACCTAGTGCAG” stands 11400 fluorescence intensity (a.u.); under “GACTTTACTCTATCTTCATTTCCGCACAACGTTGACTGGGCGGAGTCACCTAGTGCAG”, 3590 fluorescence intensity (a.u.); under “AGCCACGGGCGAGCGGGAGGTGGCACGTCGACAGGCGGCGCGGAGTCACCTAGTGCAG”, 5040 fluorescence intensity (a.u.).
